Some of the results follow. The main result of the screen is listed elsewhere. These columns were measured beside it and carry no call. Most of these compounds were active or inconclusive in the main read-out, so they are no random draw. Potencies come from curve fits of mixed quality, noted in brackets.
Assay: qHTS Assay for Lipid Storage Modulators in Drosophila S3 Cells;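 on cell number change: cells counted by Cell Tracker Red CMTPX staining in the red channel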
Conditions: BODIPY lipid droplet fluorescence, 18-24 h; for cell number change: measured here: cell count max response, cells fed with added oleic acid
Summary of the method: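 Laser-scanning cytometry quantifies lipid droplet accumulation (500–530 nm total intensity; droplet/cell object ratio) in oleic acid-fed (400 uM added) Drosophila S3 cells treated with a concentration series. 20 uM Triacsin C defined 100% inhibition.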

[1] = measured here: cell number channel AC50, cells fed with added oleic acid
[2] = measured here: lipid fluorescence (Fed channel) AC50, cells fed with added oleic acid

Compound: O=C(c1ccco1)N1N=C(c2ccc(Cl)cc2)CC1(O)C(F)(F)F (centres undefined)
- cell number change: -81.9%
- AC50 [1]: 6.51 µM [falling, single point]
- AC50 [2]: 23.1 µM [falling, single point]

Compound: CC1(C)OC(=O)C(=NNc2ccc(Cl)cc2)C(=O)O1
- AC50 [2]: 6.51 µM [falling, single point]

Compound: Cc1ccc(C(=O)NCCCNC(=O)c2ccco2)cn1
- cell number change: 15.7%
- AC50 [1]: 6.51 µM [rising, partial curve, poor fit]

Compound: COc1ccc(N2CC(C(=O)N[C@@H](C)C(=O)NCCc3ccccc3)CC2=O)cc1 (some centres undefined)
- cell number change: 3.98%
- AC50 [2]: 29.1 µM [rising, single point]

Compound: O=C(CN1CCCCCC1)N/N=C/c1cccs1
- cell number change: -129%
- AC50 [1]: 25.9 µM [falling, partial curve, poor fit]
- AC50 [2]: 20.6 µM [falling, partial curve]

Compound: Cc1nnc(SCC(=O)NNC(=O)c2ccccc2)n1N
- cell number change: 0.634%
- AC50 [2]: 0.00461 µM [falling, full curve, poor fit]

Compound: Clc1cccc(Oc2cnns2)c1Cl
- cell number change: -33.4%
- AC50 [1]: 9.2 µM [falling, partial curve, poor fit]

Compound: CCOC(=O)c1cnn(-c2ccc(F)cc2)c1N
- cell number change: 128%
- AC50 [1]: 20.6 µM [rising, partial curve]

Compound: CCCC/C(O)=C1\C(=O)CC(C)(C)CC1=NCCCCCC(=O)O
- cell number change: -4.87%
- AC50 [2]: 3.26 µM [falling, single point]

Compound: CC(=O)Nc1ccc2nc(SCC(=O)Nc3ccc(N4CCOCC4)c(Cl)c3)sc2c1
- cell number change: -11%
- AC50 [2]: 18.4 µM [falling, partial curve, poor fit]

Compound: COc1ccc2c(C)cc(N3CCN(Cc4ccccc4)CC3)nc2c1
- cell number change: 13.5%
- AC50 [2]: 7.31 µM [rising, partial curve, poor fit]

Compound: Cc1cc(C)c2sc(N(CCCN(C)C)C(=O)c3ccc(S(=O)(=O)N4CCCc5ccccc54)cc3)nc2c1
- cell number change: -80.7%
- AC50 [1]: 23.1 µM [falling, partial curve]
- AC50 [2]: 29.1 µM [falling, single point]

Compound: O=C(CNC(=O)c1cncc(Br)c1)Nc1ccc(F)c(F)c1F
- cell number change: 30.8%
- AC50 [1]: 1.16 µM [rising, partial curve, poor fit]

Compound: CCOC(=O)Cc1csc(NC(=O)CSc2nc3sc(C(=O)O)c(C)c3c(=O)[nH]2)n1
- cell number change: -9.82%
- AC50 [1]: 0.731 µM [falling, single point]
- AC50 [2]: 0.651 µM [falling, full curve]

Compound: O=C(Cc1ncn[nH]1)NCCc1ccccc1
- cell number change: 8.31%
- AC50 [1]: 1.3 µM [falling, single point]
- AC50 [2]: 6.51 µM [rising, partial curve, poor fit]

Compound: O=c1cc(CSc2nnnn2-c2ccccc2)nc2sccn12
- cell number change: 24.8%
- AC50 [2]: 9.2 µM [rising, partial curve]

Compound: CCN1C(=O)[C@@H]2Cc3c([nH]c4ccccc34)C(c3ccc(OC)cc3)N2C1=S (some centres undefined)
- cell number change: -16.2%
- AC50 [2]: 6.51 µM [rising, single point]

Compound: Cc1ccc(C2NS(=O)(=O)N=C2N)cc1 (centres undefined)
- cell number change: -49.6%
- AC50 [1]: 0.164 µM [falling, full curve]
- AC50 [2]: 0.146 µM [falling, full curve]

Compound: CCCC1CCC(C(=O)n2nc(N)c3cc4ccc(OC)cc4nc32)CC1 (centres undefined)
- cell number change: 10.3%
- AC50 [2]: 0.82 µM [rising, full curve]

Compound: CCc1cc2c(C)ccc(C)c2nc1SCC(=O)Nc1cc(C)on1
- cell number change: -11.8%

Compound: Cc1cc(C)c2c(=O)n(CC(=O)Nc3cccc(Cl)c3C)sc2n1
- cell number change: -57.5%
- AC50 [1]: 16.4 µM [falling, single point]

Compound: O=C(CSc1ncn(-c2ccccc2)n1)c1cccs1
- AC50 [2]: 0.82 µM [rising, single point]

Compound: O=C(Nc1nc(-c2ccc3c(c2)Cc2ccccc2-3)cs1)c1ccccc1
- cell number change: -39.7%
- AC50 [1]: 13 µM [falling, partial curve, poor fit]

Compound: Cc1cc(C)nc(Nc2nc3ccccc3[nH]2)n1
- cell number change: 54.4%
- AC50 [1]: 0.164 µM [rising, full curve, poor fit]
- AC50 [2]: 0.13 µM [rising, full curve, poor fit]

Compound: COc1ccc(C(=O)NC(=S)Nc2cccc(NC(=O)c3ccco3)c2)cc1[N+](=O)[O-]
- cell number change: -11.2%

Compound: CC(C)Cn1c(C(C)C)nc([N+](=O)[O-])c1S(=O)(=O)c1ccc(F)cc1
- cell number change: -9.51%
- AC50 [2]: 6.51 µM [falling, partial curve]

Compound: CN(c1ccc([N+](=O)[O-])cc1/C=N/NC(=O)COc1ccccc1)C1CCCCC1
- cell number change: 24.4%
- AC50 [2]: 2.59 µM [rising, full curve]

Compound: COc1ccc(S(=O)(=O)N2CCCC2)cc1C(C)C
- cell number change: -15.6%

Compound: O=[N+]([O-])c1ccc(S(=O)(=O)CC2CSc3nc4ccccc4n32)cc1 (centres undefined)
- AC50 [2]: 20.6 µM [falling, partial curve]

Compound: COCCn1c(SCC(=O)Nc2nc(C)c(Cl)cc2Cl)nc2ccccc21
- cell number change: -9.45%
- AC50 [1]: 0.082 µM [rising, full curve, poor fit]

Compound: Cc1cc(NC(=O)COC(=O)c2c(C)nn(-c3ccccc3)c2C)no1
- cell number change: -21.6%
- AC50 [2]: 0.164 µM [rising, full curve, poor fit]

Compound: CC(C)(C)c1ccc(C(=O)NNC(=S)NC(=O)c2cccnc2)cc1
- cell number change: -13.2%

Compound: Cn1ccnc1SCC(=O)Nc1cccc2ccccc12
- cell number change: 42.4%
- AC50 [1]: 5.8 µM [rising, single point]
- AC50 [2]: 0.461 µM [falling, partial curve, poor fit]

Compound: CC(=O)c1ccc(S(=O)(=O)Nc2ccc(-n3cnnn3)cc2)cc1
- cell number change: -3.55%
- AC50 [2]: 29.1 µM [rising, single point]

Compound: CC(C)C(=O)N1CCN(C2=NS(=O)(=O)c3ccccc32)CC1
- cell number change: -7.73%

Compound: O=C(NC1c2ccccc2-c2ccccc21)c1ccco1
- cell number change: 18.7%

Compound: CCc1ccc(NC(=O)CSc2nc3ccccc3nc2N2CCCC2)cc1
- cell number change: 13.8%
- AC50 [2]: 29.1 µM [falling, single point]

Compound: CN(C)CCCNC(=O)c1ccccn1
- cell number change: -134%

Compound: CCOC(=O)C(=O)Nc1nnc(SCc2ccc(F)cc2)s1
- AC50 [2]: 1.16 µM [falling, full curve]

Compound: O=C(c1cc(-c2cccc(O)c2)on1)N1CCCCCC1
- cell number change: 20%
- AC50 [2]: 29.1 µM [falling, single point]

Compound: Nc1c(S(=O)(=O)c2cc(Cl)ccc2Cl)c2nc3ccccc3nc2n1CCN1CCOCC1
- cell number change: 23.9%
- AC50 [2]: 0.82 µM [rising, full curve]

Compound: O=C(Nc1nc2ccccc2s1)c1ccc(Cl)s1
- cell number change: -41.8%
- AC50 [1]: 2.59 µM [falling, partial curve, poor fit]
- AC50 [2]: 6.51 µM [falling, single point]

Compound: Cc1ccc(S(=O)(=O)N/N=C\c2ccc(Cl)c([N+](=O)[O-])c2)cc1
- AC50 [2]: 0.651 µM [falling, single point]

Compound: COc1ccc2nc(NC(=O)C3COc4ccccc4O3)sc2c1 (centres undefined)
- AC50 [2]: 3.66 µM [rising, partial curve]

Compound: Cn1c(CNC(=O)OC(C)(C)C)nnc1SCC(=O)N1CCOCC1
- cell number change: -11.5%
- AC50 [2]: 0.0013 µM [falling, full curve, poor fit]

Compound: CCOC(=O)c1oc2ccc(S(=O)(=O)N3CCOCC3)cc2c1C
- cell number change: 30.3%
- AC50 [1]: 7.31 µM [rising, partial curve, poor fit]

Compound: O=C(NCC1CCCCN1)c1cc(OCC(F)(F)F)ccc1OCC(F)(F)F (centres undefined)
- cell number change: 3.17%
- AC50 [2]: 0.116 µM [rising, full curve, poor fit]

Compound: CC(=O)c1cc(-c2ccccc2)n(CCC(=O)NC2CCCCC2)c1C
- cell number change: 11.6%
- AC50 [2]: 0.0731 µM [falling, full curve, poor fit]

Compound: O=C(CSc1n[nH]c(-c2ccccc2)n1)Nc1ccc(N2CCOCC2)cc1
- cell number change: -42.7%

Compound: CNc1ccccc1C(=O)OC(C)C(=O)Nc1ccc(S(=O)(=O)N2CCCC2)cc1 (centres undefined)
- cell number change: -13.6%

Compound: O=c1c2c3c(sc2n(CCN2CCOCC2)c(=O)n1Cc1ccco1)CCCCC3
- cell number change: -0.578%
- AC50 [2]: 0.58 µM [falling, single point]

Compound: Cn1c(=O)n(C)c2cc(/C=N/NC(=O)c3cccc(Br)c3)ccc21
- cell number change: 35.9%
- AC50 [1]: 0.259 µM [rising, full curve]

Compound: COc1ccc(CCNC(=O)CSc2nnc(CNC(=O)c3ccco3)o2)cc1OC
- cell number change: 10.2%
- AC50 [2]: 29.1 µM [rising, single point]

Compound: O=C(CN1CCN(CC(=O)Nc2ccccc2Cc2ccccc2)CC1)Nc1ccccc1Cl
- cell number change: 34.9%
- AC50 [1]: 14.6 µM [rising, partial curve, poor fit]

Compound: CC1CCc2cc(F)cc3c(=O)c(C(=O)O)cn1c23 (centres undefined)
- cell number change: -42%
- AC50 [2]: 29.1 µM [falling, single point]

Compound: CCNS(=O)(=O)c1ccc(CCC(=O)N2CCN(c3ccc(OC)cc3)CC2)cc1
- cell number change: 10.8%

Compound: Cc1cccc(C(=O)NCCCNC(=O)c2ccco2)c1
- cell number change: -0.952%

Compound: Cc1ccc(C(=O)N2CCN(c3ncccn3)CC2)cc1NC1=NC2CS(=O)(=O)CC2S1 (centres undefined)
- cell number change: 20.5%

Compound: Cc1cc(OCC(=O)Nc2cccnc2)c2c(C)c(C)c(=O)oc2c1
- cell number change: -1.91%

Compound: Cc1onc(-c2c(F)cccc2Cl)c1C(=O)O/N=C(\N)c1ccc([N+](=O)[O-])o1
- cell number change: -33.5%
- AC50 [1]: 14.6 µM [falling, single point]
- AC50 [2]: 29.1 µM [falling, single point]

Compound: CCN(CC)S(=O)(=O)c1ccc(Oc2cccc(C(C)=O)c2)nc1
- cell number change: -2.24%

Compound: CCOC(=O)c1ccc(NC(=O)c2nc[nH]c2C(=O)N[C@@H](CCCCNC(=O)OC(C)(C)C)C(=O)OC(C)(C)C)cc1
- cell number change: -3.18%
- AC50 [2]: 32.6 µM [falling, single point]

From PubChem BioAssay AID2685 (National Center for Advancing Translational Sciences (NCATS), 2010)
